Values from PubChem BioAssay AID1259308 (NCATS, 2017)
This is an unselected part of about 59,000 deposited reagents. In the full data, about 1,510 (2.6%) were called active. 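Calls use total luciferase alone and ignore viability, so some active siRNAs may act by altering cell number.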 Reagents against one gene are numbered here. Further read-outs or replicates are left out here.

Aim: 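Knock-downs that increase output of a recombinant reporter protein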 (primary screen)
Cell system: human HEK293 embryonic kidney cells stably expressing firefly luciferase (HEK-CMV-Luc2-Hygro)
Reagent: single siRNA against human genes, 0.8 pmol siRNA per well
Timing: 72 h
Read-out: 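Luciferase light (ONE-Glo) measured on one replicate plate set and viability (CellTiter-Glo) on the other, scaled to a negative control siRNA, with robust z-scores and luciferase per cell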
Direction: total luciferase, z-score and total luciferase, % of control: higher = more reporter protein produced
Hit rule: 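An siRNA counts as active if its total luciferase robust z-score exceeds 3; genes with two or more such siRNAs out of three were retested with fresh siRNAs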
Calls: active = raised luciferase; inactive = no rise

Target gene,reagent,"total luciferase, z-score","total luciferase, % of control",activity call
TMEM119 (GeneID 338773),1,0.0286,82.5,inactive
TMEM119 (GeneID 338773),2,-1.97,42.7,inactive
TMEM119 (GeneID 338773),3,0.605,93.9,inactive
SPHK2 (GeneID 56848),1,-1.03,61.4,inactive
SPHK2 (GeneID 56848),2,-0.727,67.4,inactive
SPHK2 (GeneID 56848),3,1.2,106,inactive
ST6GALNAC4 (GeneID 27090),1,-0.164,78.6,inactive
ST6GALNAC4 (GeneID 27090),2,0.337,88.6,inactive
ST6GALNAC4 (GeneID 27090),3,-0.856,64.9,inactive
AMY2A (GeneID 279),1,-0.485,72.2,inactive
AMY2A (GeneID 279),2,-0.41,73.7,inactive
AMY2A (GeneID 279),3,-0.911,63.8,inactive
RNF122 (GeneID 79845),1,0.495,91.7,inactive
RNF122 (GeneID 79845),2,-1.71,47.8,inactive
RNF122 (GeneID 79845),3,2.95,141,inactive
MCMDC2 (GeneID 157777),1,-0.512,71.7,inactive
MCMDC2 (GeneID 157777),2,-1.71,47.9,inactive
MCMDC2 (GeneID 157777),3,-1.85,45.1,inactive
NUDT7 (GeneID 283927),1,-0.318,75.6,inactive
NUDT7 (GeneID 283927),2,0.0962,83.8,inactive
NUDT7 (GeneID 283927),3,-0.914,63.7,inactive
PREPL (GeneID 9581),1,0.556,92.9,inactive
PREPL (GeneID 9581),2,-0.547,71,inactive
PREPL (GeneID 9581),3,0.227,86.4,inactive
RAB3C (GeneID 115827),1,-0.607,69.8,inactive
RAB3C (GeneID 115827),2,1.37,109,inactive
RAB3C (GeneID 115827),3,2.94,140,inactive
GNG8 (GeneID 94235),1,0.471,91.3,inactive
GNG8 (GeneID 94235),2,-1.91,43.9,inactive
GNG8 (GeneID 94235),3,-0.59,70.2,inactive
CPS1 (GeneID 1373),1,1.16,105,inactive
CPS1 (GeneID 1373),2,-0.0256,81.4,inactive
CPS1 (GeneID 1373),3,-0.375,74.4,inactive
RASGRF1 (GeneID 5923),1,0.199,85.8,inactive
RASGRF1 (GeneID 5923),2,0.619,94.2,inactive
RASGRF1 (GeneID 5923),3,-0.199,77.9,inactive
HEG1 (GeneID 57493),1,0.0691,83.3,inactive
HEG1 (GeneID 57493),2,0.242,86.7,inactive
HEG1 (GeneID 57493),3,-0.744,67.1,inactive
VTI1B (GeneID 10490),1,-1.47,52.6,inactive
VTI1B (GeneID 10490),2,1.21,106,inactive
VTI1B (GeneID 10490),3,-0.116,79.6,inactive
CCDC28A (GeneID 25901),1,-0.359,74.8,inactive
CCDC28A (GeneID 25901),2,-1.23,57.4,inactive
CCDC28A (GeneID 25901),3,0.25,86.9,inactive
FBXO10 (GeneID 26267),1,0.413,90.1,inactive
FBXO10 (GeneID 26267),2,0.595,93.7,inactive
FBXO10 (GeneID 26267),3,-0.875,64.5,inactive
DHRS9 (GeneID 10170),1,-0.607,69.8,inactive
DHRS9 (GeneID 10170),2,-0.503,71.9,inactive
DHRS9 (GeneID 10170),3,-0.758,66.8,inactive
RRAGA (GeneID 10670),1,0.696,95.7,inactive
RRAGA (GeneID 10670),2,0.696,95.7,inactive
RRAGA (GeneID 10670),3,0.614,94.1,inactive
OR1D4 (GeneID 653166),1,0.519,92.2,inactive
OR1D4 (GeneID 653166),2,1.3,108,inactive
OR1D4 (GeneID 653166),3,-0.706,67.8,inactive

An excerpt from above, reduced to “total luciferase, z-score”.
RASGRF1 (GeneID 5923) #3: -0.199
HEG1 (GeneID 57493) #1: 0.0691
HEG1 (GeneID 57493) #2: 0.242
